Reference: publication PMC10196829
These are yes or no findings as the source states them, for the method shown. In cells and extracts the contact can be indirect. Some results given as binding are weak or reduced against the parent protein; the word gives no strength.

The chains behind the UniProt entries cited, without tags or fusion partners. Residues count along the entry.
UniProt P17301, residues 30-1181: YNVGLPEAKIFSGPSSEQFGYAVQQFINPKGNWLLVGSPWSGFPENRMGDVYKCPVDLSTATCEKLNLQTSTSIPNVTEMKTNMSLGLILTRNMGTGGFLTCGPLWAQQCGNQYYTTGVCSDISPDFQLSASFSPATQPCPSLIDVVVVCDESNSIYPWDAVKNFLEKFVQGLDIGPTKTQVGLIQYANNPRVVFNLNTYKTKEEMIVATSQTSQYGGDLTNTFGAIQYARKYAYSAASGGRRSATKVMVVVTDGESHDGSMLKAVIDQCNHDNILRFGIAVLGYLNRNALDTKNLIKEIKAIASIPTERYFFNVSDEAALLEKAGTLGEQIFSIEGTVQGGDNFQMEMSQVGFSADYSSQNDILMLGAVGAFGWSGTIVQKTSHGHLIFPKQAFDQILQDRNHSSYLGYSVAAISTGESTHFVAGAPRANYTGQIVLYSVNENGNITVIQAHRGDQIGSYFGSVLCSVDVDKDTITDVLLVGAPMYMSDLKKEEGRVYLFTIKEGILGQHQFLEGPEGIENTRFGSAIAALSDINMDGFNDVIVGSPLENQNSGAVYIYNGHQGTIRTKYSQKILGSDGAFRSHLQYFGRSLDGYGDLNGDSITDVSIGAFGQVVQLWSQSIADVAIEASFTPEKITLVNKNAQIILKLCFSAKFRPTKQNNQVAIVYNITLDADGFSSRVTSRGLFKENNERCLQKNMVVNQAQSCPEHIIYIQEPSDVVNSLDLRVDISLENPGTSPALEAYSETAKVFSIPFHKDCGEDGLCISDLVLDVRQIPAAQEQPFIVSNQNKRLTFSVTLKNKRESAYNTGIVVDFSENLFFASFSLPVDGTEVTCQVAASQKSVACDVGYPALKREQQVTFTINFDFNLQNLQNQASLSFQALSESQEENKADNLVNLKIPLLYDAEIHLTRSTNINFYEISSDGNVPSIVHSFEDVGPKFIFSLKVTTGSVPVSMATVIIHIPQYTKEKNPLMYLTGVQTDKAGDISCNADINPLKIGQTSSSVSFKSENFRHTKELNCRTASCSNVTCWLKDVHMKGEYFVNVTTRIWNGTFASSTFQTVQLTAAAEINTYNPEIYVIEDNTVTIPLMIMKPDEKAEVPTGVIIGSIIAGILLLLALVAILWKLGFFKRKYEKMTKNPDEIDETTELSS
UniProt P18564, residues 22-788: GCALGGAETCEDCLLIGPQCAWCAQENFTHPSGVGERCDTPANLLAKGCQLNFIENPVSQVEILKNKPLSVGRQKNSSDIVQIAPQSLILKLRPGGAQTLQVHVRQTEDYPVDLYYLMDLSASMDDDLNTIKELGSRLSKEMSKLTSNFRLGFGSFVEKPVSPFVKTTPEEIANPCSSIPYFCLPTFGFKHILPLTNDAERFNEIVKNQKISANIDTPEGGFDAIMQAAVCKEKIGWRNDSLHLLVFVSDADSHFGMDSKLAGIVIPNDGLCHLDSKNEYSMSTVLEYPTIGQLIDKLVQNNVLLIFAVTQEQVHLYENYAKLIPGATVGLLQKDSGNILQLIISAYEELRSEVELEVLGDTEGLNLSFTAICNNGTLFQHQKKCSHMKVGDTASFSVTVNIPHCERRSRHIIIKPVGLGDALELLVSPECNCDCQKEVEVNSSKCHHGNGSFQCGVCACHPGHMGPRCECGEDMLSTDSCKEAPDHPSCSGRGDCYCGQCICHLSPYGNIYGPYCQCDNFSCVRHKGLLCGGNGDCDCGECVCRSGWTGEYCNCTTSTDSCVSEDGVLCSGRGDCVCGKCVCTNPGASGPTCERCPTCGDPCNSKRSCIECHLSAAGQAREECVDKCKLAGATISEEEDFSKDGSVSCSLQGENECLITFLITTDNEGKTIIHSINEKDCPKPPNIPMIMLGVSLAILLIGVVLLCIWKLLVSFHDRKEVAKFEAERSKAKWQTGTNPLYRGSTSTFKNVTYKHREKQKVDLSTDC
UniProt P05107, residues 23-769: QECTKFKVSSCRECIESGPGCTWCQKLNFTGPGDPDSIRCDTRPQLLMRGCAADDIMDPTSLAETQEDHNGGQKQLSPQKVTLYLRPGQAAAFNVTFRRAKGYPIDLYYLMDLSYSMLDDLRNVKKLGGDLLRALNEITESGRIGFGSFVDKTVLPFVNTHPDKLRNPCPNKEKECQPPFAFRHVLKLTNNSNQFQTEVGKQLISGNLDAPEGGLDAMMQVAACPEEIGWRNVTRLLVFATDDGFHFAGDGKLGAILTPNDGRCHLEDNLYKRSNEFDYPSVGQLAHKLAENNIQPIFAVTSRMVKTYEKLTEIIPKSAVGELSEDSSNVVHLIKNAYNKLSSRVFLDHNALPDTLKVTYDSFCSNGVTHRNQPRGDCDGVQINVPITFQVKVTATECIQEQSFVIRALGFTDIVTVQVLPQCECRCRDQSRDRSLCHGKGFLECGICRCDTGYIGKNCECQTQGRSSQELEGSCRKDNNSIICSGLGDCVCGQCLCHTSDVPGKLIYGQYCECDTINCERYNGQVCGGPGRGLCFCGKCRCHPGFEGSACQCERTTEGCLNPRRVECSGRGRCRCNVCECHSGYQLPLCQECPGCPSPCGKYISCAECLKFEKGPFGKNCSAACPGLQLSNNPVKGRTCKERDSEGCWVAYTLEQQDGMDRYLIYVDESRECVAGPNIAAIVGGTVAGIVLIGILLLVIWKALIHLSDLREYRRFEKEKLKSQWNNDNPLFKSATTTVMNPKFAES

What was measured:
ITGA2-HIS (human) = ITGA2-HIS (human) (UniProt P17301); test: co-IP; extracts of MLE-12 cells co-transfected with ITGA2-HIS and ITGB2-YFP or ITGB6-GFP; IP with HIS-specific antibodies or IgG as control; protein-G-sepharose; Western blot; input 3%
[1] = biological target: endogenous ITGB6 (A549 cells) (human (endogenous in A549)) (UniProt P18564); test: condition: only with ITGB2 overexpressed in the A549 cells; co-IP; as a3, IP with ITGB6-specific antibody from A549 cells that overexpress ITGB2
[2] = biological target: endogenous ITGB6 (A549 cells) (human (endogenous in A549)) (UniProt P18564); test: co-IP; extracts of A549 cells transfected with empty vector (Ctrl) or ITGB2; IP with ITGB6- or ITGB2-specific antibodies or IgG; Western blot; input 5%

binding (ITGA2-HIS (human))	binding [1]	binding [2]	Substance
binds			ITGB2-YFP (in MLE-12 cells) (from UniProt P05107 23-769) (receptor)
	no binding	binds	endogenous EGFR, non-phosphorylated (A549 cells) (from UniProt P00533 25-1210) (receptor)
binds			ITGB6-GFP (in MLE-12 cells) (from UniProt P18564 22-788) (receptor)
